Measurements reported in PubChem BioAssay AID602313 (National Center for Advancing Translational Sciences (NCATS), 2012).
Screen size: about 390,000 compounds; about 760 (0.19%) were called active. Inconclusive results, whose numbers are uncertain, are shown with a selection of clear calls. Calls come from the whole dose curve; as a rule, active = well fitted inhibition curve with a large enough effect; inconclusive = small, poorly fitted or top-dose-only effect; inactive = flat fitted curve, though single readings scatter. Potencies beside an inconclusive call are fits to weak or partial responses and may not hold up.

Assay: qHTS for Inhibitors of Vif-A3F Interactions: qHTS; note: nearly all actives have a fitted effect of over 65% in size; for activity, negative = active: % of control where 0% means no effect
Settings: HeLa A3F-eYFP + Vif (tagged APOBEC3F with the HIV-1 protein that degrades it), YFP fluorescence increase; series mostly up to 46.1 µM; activity, negative = active: at the top concentration
Method in brief: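 HeLa cells stably expressing Vif plus C-terminally eYFP-tagged A3F were seeded, incubated overnight at 37 deg C, dosed with compound, incubated overnight again at 37 deg C. Yellow fluorescence (Ex 488/Em 500-530) reported blocked Vif-mediated A3F-eYFP degradation.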
Potency is the fitted concentration of half-maximal effect.

SMILES	Potency	activity, negative = active
Cc1ccc(C)c(Nc2cc(C)nc(-c3ccccc3O)n2)c1	inconclusive: 11.2 µM [inhibitor, partial curve, poor fit]	–
COc1cccc(C(=O)NC(c2ccc(Cl)cc2)c2cc(Cl)c3cccnc3c2O)c1 (configuration not stated)	inconclusive: 35.5 µM [inhibitor, single point]	–
Cc1nnc(SCc2nc3sc4c(c3c(=O)[nH]2)CCCC4)n(N)c1=O	inconclusive: 22.4 µM [inhibitor, single point]	–
O=Cc1ccc(-c2nc3ccccc3s2)o1	–	inactive: -19%
COc1ccc(-c2cc(-c3ccccc3)nc(SCC(=O)Nc3nccs3)c2C#N)cc1	inconclusive: 6.31 µM [inhibitor, single point]	–
CCOC(=O)N1CCN(C(=S)NC(=O)c2cc(Br)ccc2Cl)CC1	inconclusive: 6.31 µM [inhibitor, single point]	–
Cc1ccc(S(=O)(=O)N2CCN(C(=O)CN3C(=O)c4ccc([N+](=O)[O-])cc4C3=O)CC2)c(C)c1	inconclusive: 35.5 µM [inhibitor, single point]	–
CC(=O)N(C1=C(Cl)C(=O)c2ccccc2C1=O)C1CCCCC1	inconclusive: 3.55 µM [inhibitor, partial curve, poor fit]	–
COc1cc(C(=O)NC2CCN(CC(=O)NC3CCCCC3C)CC2)cc(OC)c1OC (configuration not stated)	inconclusive: 7.08 µM [inhibitor, partial curve, poor fit]	–
Cc1cc(C(=O)O)ccc1N=Cc1c(O)ccc2ccccc12	inconclusive: 0.282 µM [inhibitor, partial curve, poor fit]	–
C1=C(c2ccccc2)Nc2nnnn2C1c1cccs1 (configuration not stated)	inconclusive: 10 µM [inhibitor, partial curve, poor fit]	–
CC(=O)Nc1ccc(/C=C/C(=O)c2ccc3c(c2)OCCO3)cc1	inconclusive: 35.5 µM [inhibitor, single point]	–
COc1cc(/C=C2\C(=N)N3N=C(C)SC3=NC2=O)cc(Cl)c1OCCOc1ccc(NC(C)=O)cc1	inconclusive: 11.2 µM [inhibitor, partial curve, poor fit]	–
N#Cc1c(-c2ccccc2)cc(-c2ccccc2)nc1SCC(=O)Nc1ccc(Cl)cc1	–	inactive: -6.22%
CN(C)c1ccc(C=C(c2nnnn2-c2ccccc2)c2nnnn2-c2ccccc2)cc1	inconclusive: 22.4 µM [inhibitor, partial curve, poor fit]	–
O=S1(=O)CCC(N=Cc2cc(Br)ccc2O)C1 (configuration not stated)	–	inactive: 1.5%
Cc1sc2nc(CSCC(=O)Nc3c(Cl)cccc3Cl)[nH]c(=O)c2c1C	inconclusive: 35.5 µM [inhibitor, single point]	–
CCOc1ccc(NC(=S)Nc2cccc3ccccc23)cc1	inconclusive: 35.5 µM [inhibitor, single point]	–
COc1ccc2oc(=O)c(-c3nc4ccccc4o3)cc2c1	active: 12.6 µM	–
CCOC(=O)N1CCC(Nc2nc3ccccc3n3nnnc23)CC1	active: 10 µM	–
Cc1ccc(C)c(NC(=O)Cn2c(=O)n(Cc3ccco3)c(=O)c3ccc(C(=O)NC4CCCC4)cc32)c1	inconclusive: 17.8 µM [inhibitor, single point]	–

SMILES	Potency	activity, negative = active
CSc1ccccc1NC(=O)CSc1cccc[n+]1[O-]	inconclusive: 6.31 µM [inhibitor, single point]	–
O=C(NCCc1c[nH]c2ccccc12)C1CCN(S(=O)(=O)c2ccccc2)CC1	inconclusive: 5.62 µM [inhibitor, single point]	–
S=C(NCc1ccco1)Nc1ccc(Cl)cn1	active: 25.1 µM	–
COc1cccc(-c2nnc3n2N=C(c2cc(OC)ccc2OC)CS3)c1	–	inactive: -1.03%
O=C(OCc1cn([C@@H]2CN(Cc3cccs3)[C@@H](c3ccc(Cl)cc3)C[C@H]2O)nn1)c1ccccc1	inconclusive: 22.4 µM [inhibitor, single point]	–
C=CCn1c(C#N)c(N)sc1=N	inconclusive: 25.1 µM [inhibitor, single point]	–
Cc1ccc(-c2cc(C(=O)NCCc3ccccc3)c3ccccc3n2)cc1C	–	inactive: -1.54%
CN(C)c1ccc(/C=C(\C#N)c2nc3ccccc3c(=O)[nH]2)cc1	active: 5.01 µM	–
CCOC(=O)CN(C(=O)c1ccccc1)c1ccccc1C	–	inactive: 8.31%
O=C(c1ccc(CSc2nc3ccncc3n2Cc2ccccc2F)cc1)N1CCCCC1	–	inactive: -0.528%
CC(C)[C@H]1COCCS(=O)(=O)N1Cc1ccccc1-c1ccc(C(C)(C)C)cc1	inconclusive: 35.5 µM [inhibitor, single point]	–
Cc1ccc2nc(/C(C#N)=C/c3ccc(-c4ccc(F)cc4F)o3)[nH]c2c1	inconclusive: 22.4 µM [inhibitor, partial curve, poor fit]	–
COc1ccc(Cl)cc1C(=O)NC(=S)Nc1nc(C)cc(C)n1	inconclusive: 35.5 µM [inhibitor, single point]	–
COc1cc([C@H]2c3[nH]c4ccccc4c3C[C@H]3C(=O)N4[C@@H](c5cc(OC)c(OC)c(OC)c5)c5[nH]c6ccccc6c5C[C@H]4C(=O)N23)cc(OC)c1OC	inconclusive: 25.1 µM [inhibitor, single point]	–
Cc1ccccc1-c1n[nH]c(=S)n1Cc1ccccc1	inconclusive: 28.2 µM [inhibitor, single point]	–
Cc1ccc2cccc(NC(=S)NC(=O)c3c(Br)cnn3C)c2n1	inconclusive: 35.5 µM [inhibitor, partial curve, poor fit]	–
O=C(c1cccc2ccccc12)C1CCCN(C(=O)CCN2CCCO2)C1 (configuration not stated)	inconclusive: 35.5 µM [inhibitor, single point]	–
NNc1nc2c(-c3ccc(F)cc3)nnn2c2ccccc12	inconclusive: 35.5 µM [inhibitor, single point]	–
COc1cc(/C=C(\C#N)c2nc3ccc(C)cc3[nH]2)ccc1OC(C)C	active: 25.1 µM	–
CCOc1cc(C2C(C#N)=C(N)OC(C)=C2C(C)=O)c(Br)c(Br)c1OC(C)C (configuration not stated)	–	inactive: -16.9%
COC(=O)c1ccc(NC2=C(Cl)C(=O)OC2OC(=O)c2ccccc2)cc1 (configuration not stated)	–	inactive: 7.29%

Random excerpt: 2 compounds from above.
SMILES	Potency	activity, negative = active
Cc1ccccc1-c1n[nH]c(=S)n1Cc1ccccc1	inconclusive: 28.2 µM [inhibitor, single point]	–
O=C(c1ccc(CSc2nc3ccncc3n2Cc2ccccc2F)cc1)N1CCCCC1	–	inactive: -0.528%
